Laboratory results taken from paper PMC7819943, “Rice protein-binding microarrays: a tool to detect cis-acting elements near promoter regions in rice”.
The list shows a part of the results.

These sequences were tested against T1, OsSMF1 (Oryza sativa, UniProt Q6ZLB0 1-436) (assay: protein-binding microarray (RPBM); PBS, 2% BSA, 51.3 ng/ul salmon testes DNA, 50 uM zinc acetate, 200 nM TF, 25 C, 1 h; high values mean tight binding). Conditions: protein: recombinant; tags: N-terminal polyhistidine and DsRed monomer fusion (pET32a); chain copies: 2; label: CyDye5-dUTP incorporated in the synthesized complementary strand; 3' TTTTT single-stranded linker to array surface; dsDNA, one strand shown.
T1 sequence: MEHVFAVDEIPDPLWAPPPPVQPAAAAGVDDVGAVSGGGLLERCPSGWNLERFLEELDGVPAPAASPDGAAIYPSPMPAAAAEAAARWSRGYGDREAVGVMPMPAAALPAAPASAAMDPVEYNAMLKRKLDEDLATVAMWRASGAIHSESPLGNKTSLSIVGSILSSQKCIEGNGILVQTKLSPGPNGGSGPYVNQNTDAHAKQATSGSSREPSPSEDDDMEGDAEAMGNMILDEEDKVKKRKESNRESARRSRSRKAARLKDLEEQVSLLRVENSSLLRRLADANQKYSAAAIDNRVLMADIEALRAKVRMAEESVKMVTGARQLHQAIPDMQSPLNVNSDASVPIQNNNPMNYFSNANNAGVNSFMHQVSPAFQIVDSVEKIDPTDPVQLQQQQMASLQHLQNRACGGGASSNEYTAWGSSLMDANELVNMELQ
Method in brief: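 For the binding signal, per-feature fluorescence intensity was read in arbitrary units on an Axon 4000B scanner. Before scanning, a 2% BSA-blocked custom Agilent array made double-stranded with Cy5-dUTP was washed after 1 h at 25 °C with 200 nM protein and 50 µM zinc acetate. The proteins were Ni–NTA-purified transcription factors with N-terminal polyhistidine and DsRed fusions, expressed in E. coli BL21-CodonPlus.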

Sequence | binding signal
CACGTGATTCGTATACTATAGTACTACTCACGTTGGAGACCGGAGTCACCTAGTGCAG | 3570 fluorescence intensity (a.u.)
TGATTATTTGTGAAATAAAATGAGATAAAATGTGATTTTACGGAGTCACCTAGTGCAG | 28600 fluorescence intensity (a.u.)
TCGAGAACTATAGACGTTTTACGTCATTCTTTTACATTAGCGGAGTCACCTAGTGCAG | 5230 fluorescence intensity (a.u.)
CCGCCCGTTCGTGCGAGGAGGAGGAAAAGCCACACGTGTTCGGAGTCACCTAGTGCAG | 6640 fluorescence intensity (a.u.)
GATTGATCATGGTTGTTCGTCCTCGACGACCTCTACACCACGGAGTCACCTAGTGCAG | 31400 fluorescence intensity (a.u.)
TCACATGATGCCACGTGCATATAGATCGATCGGGTTCAGACGGAGTCACCTAGTGCAG | 5930 fluorescence intensity (a.u.)
TTTTCAGATTTCCAGGGTGAGGATGGGATGTGCTCATGTGCGGAGTCACCTAGTGCAG | 3830 fluorescence intensity (a.u.)
GCGGGTGATGTAGGGGACCACCATGAATCATACACCAATGCGGAGTCACCTAGTGCAG | 3140 fluorescence intensity (a.u.)
CACAGATACCCATGATTGCACTTATTTTGTGACGGGTGTACGGAGTCACCTAGTGCAG | 3660 fluorescence intensity (a.u.)
CCTATCCTATGCATGAAATGAGTCAGAGGCCCACGATAGCCGGAGTCACCTAGTGCAG | 5360 fluorescence intensity (a.u.)
ACAGGCGAGGGTGGAACCCCGCGTGGCGAGAGCGTTGCGGCGGAGTCACCTAGTGCAG | 4270 fluorescence intensity (a.u.)
ATGAACTAAACGCACCCTTGTAAGTCTGACACACTGTGGACGGAGTCACCTAGTGCAG | 3720 fluorescence intensity (a.u.)
GAGTTGAAGCCCGAAACCCTGATGTGAGTTGGACAGGTGTCGGAGTCACCTAGTGCAG | 3940 fluorescence intensity (a.u.)
GGACCCCAACCACTATGCCGTAATTTAGCGTGTTTTCCCGCGGAGTCACCTAGTGCAG | 4150 fluorescence intensity (a.u.)
ATATATACTTAAACCACTGACTCATACTAATTCGTAAACACGGAGTCACCTAGTGCAG | 4360 fluorescence intensity (a.u.)
AAACTGACTCATACAAATGCCATTCTGTACATCCAGTGTCCGGAGTCACCTAGTGCAG | 4500 fluorescence intensity (a.u.)
TACTCCACTATACAAACCGACACTCGTGGGGTACGTCACTCGGAGTCACCTAGTGCAG | 4850 fluorescence intensity (a.u.)
AATGATTGAAATCGGGGCGCAAATTATTGCGATTATTATTCGGAGTCACCTAGTGCAG | 35000 fluorescence intensity (a.u.)
CATTTTCGACTCGCCGACGCCGACGTGTTCACCAATCACCCGGAGTCACCTAGTGCAG | 4540 fluorescence intensity (a.u.)
GGATGGATGTGACACATCCTAATATAATGAATCTGAACAGCGGAGTCACCTAGTGCAG | 3770 fluorescence intensity (a.u.)
CTCGATCGCCACCGCACCACCGTCCACCGCGAGCGCGCCCCGGAGTCACCTAGTGCAG | 4190 fluorescence intensity (a.u.)

Sequence | binding signal
TGTCGAGTCGAGCACGATGGGCCGTGCCGTGGAGTGCCAGCGGAGTCACCTAGTGCAG | 3620 fluorescence intensity (a.u.)
ATTGTGTGGTTTCTCCCTCTCTGGTTCTACCGCTTCTCCTCGGAGTCACCTAGTGCAG | 27300 fluorescence intensity (a.u.)
GAGCCGTCCATATAAATCCACGCCGTCGCCGCCGAATCTCCGGAGTCACCTAGTGCAG | 3370 fluorescence intensity (a.u.)
GGGGAGAGGGAGGAGGAGGAGGAGAGTGGCTACTAGTACTCGGAGTCACCTAGTGCAG | 3380 fluorescence intensity (a.u.)
GCCGGCGCCTCGTCCGTCATTCCGCCTGTGTCAAGCCGAACGGAGTCACCTAGTGCAG | 3390 fluorescence intensity (a.u.)
ACAACGTCACGACGACACATGACACGGCCTCCTCAGCTCCCGGAGTCACCTAGTGCAG | 5570 fluorescence intensity (a.u.)
TTGAAATCCCACACATGCCAGTCATCTAGCTAAGAGGCCACGGAGTCACCTAGTGCAG | 3960 fluorescence intensity (a.u.)
TTTTAGGAGTTAAGAGACGCGTCATATATATCTATCTGGACGGAGTCACCTAGTGCAG | 3720 fluorescence intensity (a.u.)
AGGTGCGTGCGTGCGTGCGACCGACCTGAAAATCCAAAGCCGGAGTCACCTAGTGCAG | 6790 fluorescence intensity (a.u.)
GGGTGTTTTGTTGACTATGAGTACTTTGACTGAAGAGGGTCGGAGTCACCTAGTGCAG | 3250 fluorescence intensity (a.u.)
GCGGCGCGGACGCGTGGGGCGTGAGGTGGACAGGTGGCGCCGGAGTCACCTAGTGCAG | 9260 fluorescence intensity (a.u.)
CACGAGACGTGTTCGTTCCTGCTCGGTCTCTGATCAGTTTCGGAGTCACCTAGTGCAG | 3360 fluorescence intensity (a.u.)
TAGATGGGCCTAAACCCAGCTAATATACGTGGAGGCCCATCGGAGTCACCTAGTGCAG | 3990 fluorescence intensity (a.u.)
GCCGTGACACGTGTCCCTCCCGTCCGCCGCTCCCGATTCCCGGAGTCACCTAGTGCAG | 26000 fluorescence intensity (a.u.)
AGAATCTGGAGGACGGGACTGGACAAACACGTAGGAGGAGCGGAGTCACCTAGTGCAG | 3380 fluorescence intensity (a.u.)
GACGAGGCTATCCAGCCCGGCCTACGAGGCTGCGCGTCACCGGAGTCACCTAGTGCAG | 4650 fluorescence intensity (a.u.)
CTCACTCCTAATTACTAAATATTCCACCTCAGCAATCTTCCGGAGTCACCTAGTGCAG | 11800 fluorescence intensity (a.u.)
AGCACACACGTTGCTGCCCCAACTCCAACTCTGCAACAAGCGGAGTCACCTAGTGCAG | 3280 fluorescence intensity (a.u.)
TTTGGCTGCCGACACGTCCCCTTGGTTGCAACAAACCTCTCGGAGTCACCTAGTGCAG | 5200 fluorescence intensity (a.u.)
GTGCCACGCAGTATCACTCTTGTCCTGTCGCCTTCGATTTCGGAGTCACCTAGTGCAG | 3240 fluorescence intensity (a.u.)
TGCTTCTATTGCTGCTATTGTTCTTGATCTATTGCTGCTACGGAGTCACCTAGTGCAG | 27500 fluorescence intensity (a.u.)

3 entries from above, comma-delimited.
Sequence,binding signal
ATTGTGTGGTTTCTCCCTCTCTGGTTCTACCGCTTCTCCTCGGAGTCACCTAGTGCAG,27300 fluorescence intensity (a.u.)
AGGTGCGTGCGTGCGTGCGACCGACCTGAAAATCCAAAGCCGGAGTCACCTAGTGCAG,6790 fluorescence intensity (a.u.)
GGGTGTTTTGTTGACTATGAGTACTTTGACTGAAGAGGGTCGGAGTCACCTAGTGCAG,3250 fluorescence intensity (a.u.)
